At least one peptide structure holds a part that was inferred or is arguable (an end, a ring closure or a residue). Non-standard residues stand in square brackets, D forms with d. Residues, ends and D or L forms follow the SMILES beside them. Met(O) = CS(=O)CC[C@H](N)C(=O)O
Test system: rats
Experiment: Pole-jumping avoidance behavior (pole climbing test), extinction of the flight response
Assay type: in vivo, rat
Details: mean ± S.E.
From the text: Rats were trained to jump onto a pole within 5 sec. following presentation of the conditioned stimulus (CS) which was a light on top of the cage. […] 10 trials a day were given in one session with an average intertrial interval of 60 sec. Intervals between trials were 40, 60 and 80 sec. which were presented in a random fashion. Rats were trained for 4 days. Extinction was studied the day following acquisition. During this first post-acquisition session failure to respond within 5 sec. to the CS were not followed by the UCS. All rats were given a 10 trial extinction session. Those animals which made 8 or more avoidances were used for further experimentation. These rats received peptide or placebo (saline) in a volume of 0.5 ml per rat s.c. immediately after completion of the first extinction session. Extinction was studied again 2 and 4 h. later.

## CC(C)C[C@H](NC(=O)[C@@H](NC(=O)[C@@H](NC(=O)[C@H](CC(C)C)NC(=O)[C@@H]1CCCN1C(=O)[C@@H](NC(=O)[C@H](CCC(N)=O)NC(=O)[C@H](CO)NC(=O)[C@H](CCCCN)NC(=O)[C@H](CCC(=O)O)NC(=O)[C@H](CO)NC(=O)[C@@H](NC(=O)[C@H](CC[S+](C)[O-])NC(=O)[C@H](Cc1ccccc1)NC(=O)CNC(=O)CN)[C@@H](C)O)[C@@H](C)O)C(C)C)[C@@H](C)O)C(=O)O (stereo partly drawn) [[Des-Tyr^1, Met(0)^5 -γ-endorphin, H-Gly-Gly-Phe-Met(O)-Thr-Ser-Glu-Lys-Ser-Gln-Thr-Pro-Leu-Val-Thr-Leu-OH] (H-GGF[Met(O)]TSEKSQTPLVTL-OH)
0.003 μg per rat s.c., 0 h (first extinction session, injection immediately after)
  Extinction (10 trials): 9.0 ± 0.3
0.003 μg per rat s.c., 2 h after injection
  Extinction (10 trials): 7.8 ± 0.8
0.003 μg per rat s.c., 4 h after injection
  Extinction (10 trials): 4.4 ± 0.9
0.01 μg per rat s.c., 0 h (first extinction session, injection immediately after)
  Extinction (10 trials): 9.4 ± 0.3
0.01 μg per rat s.c., 2 h after injection
  Extinction (10 trials): 4.8 ± 0.7
0.01 μg per rat s.c., 4 h after injection
  Extinction (10 trials): 1.4 ± 0.7

From patent US4256736A, “Psychopharmacological peptides” (Akzona Incorporated, priority 1978, dated 1981)
